Data: the supplement of paper PMC10849652
The other results are listed elsewhere or left out.

Protein sequences, listed by entry. Tags and fused reporters are not part of them. Lines headed by an entry give the natural chain unless they say otherwise; changes in a name come on top.
UniProt Q99633: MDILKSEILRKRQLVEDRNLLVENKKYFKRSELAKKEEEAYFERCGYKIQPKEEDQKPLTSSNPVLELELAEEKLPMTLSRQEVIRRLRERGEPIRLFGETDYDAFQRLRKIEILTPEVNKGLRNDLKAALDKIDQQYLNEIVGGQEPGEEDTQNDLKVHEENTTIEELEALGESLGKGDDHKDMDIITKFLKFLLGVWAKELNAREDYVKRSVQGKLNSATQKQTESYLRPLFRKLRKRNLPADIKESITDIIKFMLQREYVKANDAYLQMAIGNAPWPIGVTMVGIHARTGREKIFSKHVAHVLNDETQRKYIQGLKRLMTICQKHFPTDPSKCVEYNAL
UniProt P78527, whole entry, looked up: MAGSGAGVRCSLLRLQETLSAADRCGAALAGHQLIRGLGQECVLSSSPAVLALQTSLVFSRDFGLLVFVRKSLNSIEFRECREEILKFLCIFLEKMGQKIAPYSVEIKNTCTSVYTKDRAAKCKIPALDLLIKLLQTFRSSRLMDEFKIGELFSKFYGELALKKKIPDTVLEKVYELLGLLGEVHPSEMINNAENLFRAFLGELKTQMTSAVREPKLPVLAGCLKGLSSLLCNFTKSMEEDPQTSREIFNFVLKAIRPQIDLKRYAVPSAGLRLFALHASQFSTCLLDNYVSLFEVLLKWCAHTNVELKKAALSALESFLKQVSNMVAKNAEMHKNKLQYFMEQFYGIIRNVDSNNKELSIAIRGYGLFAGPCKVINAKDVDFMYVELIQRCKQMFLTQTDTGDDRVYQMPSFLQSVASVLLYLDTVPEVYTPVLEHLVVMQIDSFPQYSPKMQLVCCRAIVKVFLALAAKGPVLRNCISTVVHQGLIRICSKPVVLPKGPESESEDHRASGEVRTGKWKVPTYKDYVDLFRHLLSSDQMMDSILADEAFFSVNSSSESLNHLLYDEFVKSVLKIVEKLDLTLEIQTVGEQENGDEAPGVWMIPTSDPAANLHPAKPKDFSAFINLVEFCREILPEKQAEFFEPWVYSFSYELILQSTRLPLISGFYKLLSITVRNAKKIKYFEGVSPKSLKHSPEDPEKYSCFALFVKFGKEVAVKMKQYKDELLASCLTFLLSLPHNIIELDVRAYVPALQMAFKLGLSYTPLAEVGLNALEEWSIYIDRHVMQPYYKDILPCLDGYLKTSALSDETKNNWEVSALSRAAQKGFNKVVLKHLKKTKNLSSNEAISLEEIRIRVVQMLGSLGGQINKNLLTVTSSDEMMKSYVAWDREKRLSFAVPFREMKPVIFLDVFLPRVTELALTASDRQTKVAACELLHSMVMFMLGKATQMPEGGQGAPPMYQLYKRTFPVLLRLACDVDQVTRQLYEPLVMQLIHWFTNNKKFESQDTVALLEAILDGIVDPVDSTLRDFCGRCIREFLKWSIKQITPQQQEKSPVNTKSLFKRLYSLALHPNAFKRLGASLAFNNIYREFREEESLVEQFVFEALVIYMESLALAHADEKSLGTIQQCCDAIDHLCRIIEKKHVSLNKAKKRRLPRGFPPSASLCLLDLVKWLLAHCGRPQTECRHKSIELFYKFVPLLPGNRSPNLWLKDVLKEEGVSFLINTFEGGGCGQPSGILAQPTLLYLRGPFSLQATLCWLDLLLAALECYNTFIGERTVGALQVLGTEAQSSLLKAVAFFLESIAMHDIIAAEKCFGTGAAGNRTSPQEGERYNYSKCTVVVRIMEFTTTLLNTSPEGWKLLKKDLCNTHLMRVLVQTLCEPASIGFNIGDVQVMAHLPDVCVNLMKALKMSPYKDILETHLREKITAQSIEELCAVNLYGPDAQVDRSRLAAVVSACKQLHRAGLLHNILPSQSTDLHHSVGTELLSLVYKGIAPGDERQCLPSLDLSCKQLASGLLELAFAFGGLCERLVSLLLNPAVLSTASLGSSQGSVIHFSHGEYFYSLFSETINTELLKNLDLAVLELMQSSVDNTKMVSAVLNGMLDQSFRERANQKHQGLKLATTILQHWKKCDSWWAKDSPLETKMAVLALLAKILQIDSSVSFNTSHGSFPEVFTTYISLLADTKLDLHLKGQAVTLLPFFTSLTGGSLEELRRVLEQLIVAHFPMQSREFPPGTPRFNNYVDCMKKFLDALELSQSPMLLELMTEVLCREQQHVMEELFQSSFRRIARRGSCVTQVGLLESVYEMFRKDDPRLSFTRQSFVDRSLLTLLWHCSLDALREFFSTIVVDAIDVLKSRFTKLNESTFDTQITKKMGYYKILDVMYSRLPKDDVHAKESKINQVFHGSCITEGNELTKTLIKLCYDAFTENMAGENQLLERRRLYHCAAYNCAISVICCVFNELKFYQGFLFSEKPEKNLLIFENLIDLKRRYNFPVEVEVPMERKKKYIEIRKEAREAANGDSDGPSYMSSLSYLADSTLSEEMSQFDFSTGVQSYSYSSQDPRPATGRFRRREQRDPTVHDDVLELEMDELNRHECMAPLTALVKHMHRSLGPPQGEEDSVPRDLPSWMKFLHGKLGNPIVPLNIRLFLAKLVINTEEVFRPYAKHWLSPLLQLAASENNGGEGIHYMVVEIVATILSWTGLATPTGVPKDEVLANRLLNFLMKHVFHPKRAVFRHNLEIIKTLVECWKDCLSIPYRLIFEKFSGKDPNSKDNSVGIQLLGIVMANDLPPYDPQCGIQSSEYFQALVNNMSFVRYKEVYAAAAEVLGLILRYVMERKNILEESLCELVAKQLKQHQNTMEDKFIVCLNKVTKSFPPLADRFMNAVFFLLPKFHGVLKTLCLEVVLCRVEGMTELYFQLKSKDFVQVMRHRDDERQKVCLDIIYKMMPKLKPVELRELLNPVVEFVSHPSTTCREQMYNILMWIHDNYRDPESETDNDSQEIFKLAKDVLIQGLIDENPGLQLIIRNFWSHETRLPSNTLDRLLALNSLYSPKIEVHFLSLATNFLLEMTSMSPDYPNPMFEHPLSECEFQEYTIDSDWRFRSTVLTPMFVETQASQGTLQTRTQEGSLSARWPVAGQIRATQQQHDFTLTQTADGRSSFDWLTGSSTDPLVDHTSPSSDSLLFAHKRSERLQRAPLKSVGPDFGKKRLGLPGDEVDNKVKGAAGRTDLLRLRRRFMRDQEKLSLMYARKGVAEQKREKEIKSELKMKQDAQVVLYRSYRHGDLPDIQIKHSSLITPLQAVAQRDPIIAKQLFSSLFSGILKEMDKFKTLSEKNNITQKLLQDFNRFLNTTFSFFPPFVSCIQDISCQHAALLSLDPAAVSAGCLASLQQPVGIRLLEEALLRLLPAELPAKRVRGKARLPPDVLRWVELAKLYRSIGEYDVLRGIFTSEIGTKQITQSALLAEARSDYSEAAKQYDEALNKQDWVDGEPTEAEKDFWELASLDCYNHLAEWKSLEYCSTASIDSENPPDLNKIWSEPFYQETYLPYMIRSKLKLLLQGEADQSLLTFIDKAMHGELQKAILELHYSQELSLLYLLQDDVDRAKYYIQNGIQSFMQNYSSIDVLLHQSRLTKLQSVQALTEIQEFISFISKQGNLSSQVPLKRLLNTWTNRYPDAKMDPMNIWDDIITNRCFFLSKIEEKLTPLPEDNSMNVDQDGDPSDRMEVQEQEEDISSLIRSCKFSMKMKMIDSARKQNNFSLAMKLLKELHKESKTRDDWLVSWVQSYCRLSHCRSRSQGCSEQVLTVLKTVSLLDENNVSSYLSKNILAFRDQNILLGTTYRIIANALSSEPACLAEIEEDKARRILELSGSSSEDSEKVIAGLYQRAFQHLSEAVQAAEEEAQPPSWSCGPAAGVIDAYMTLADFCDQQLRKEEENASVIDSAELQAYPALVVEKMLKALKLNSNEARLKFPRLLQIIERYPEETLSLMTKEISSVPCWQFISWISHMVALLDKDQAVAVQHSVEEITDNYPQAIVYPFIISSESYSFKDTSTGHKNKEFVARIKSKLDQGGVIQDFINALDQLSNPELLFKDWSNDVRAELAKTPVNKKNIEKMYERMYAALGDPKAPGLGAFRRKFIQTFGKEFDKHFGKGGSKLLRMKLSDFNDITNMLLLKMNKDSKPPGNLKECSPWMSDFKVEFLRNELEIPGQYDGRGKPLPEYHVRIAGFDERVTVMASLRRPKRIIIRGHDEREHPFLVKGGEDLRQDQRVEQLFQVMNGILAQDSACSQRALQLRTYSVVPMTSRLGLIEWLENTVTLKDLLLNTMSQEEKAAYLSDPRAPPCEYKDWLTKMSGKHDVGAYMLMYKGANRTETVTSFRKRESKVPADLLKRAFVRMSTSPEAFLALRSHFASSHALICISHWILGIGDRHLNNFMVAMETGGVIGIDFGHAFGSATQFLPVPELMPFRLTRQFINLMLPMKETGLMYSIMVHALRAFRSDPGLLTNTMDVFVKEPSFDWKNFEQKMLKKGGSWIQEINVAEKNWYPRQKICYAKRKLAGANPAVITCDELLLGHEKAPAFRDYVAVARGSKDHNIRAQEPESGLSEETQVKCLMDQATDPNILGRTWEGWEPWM
UniProt Q9Y255: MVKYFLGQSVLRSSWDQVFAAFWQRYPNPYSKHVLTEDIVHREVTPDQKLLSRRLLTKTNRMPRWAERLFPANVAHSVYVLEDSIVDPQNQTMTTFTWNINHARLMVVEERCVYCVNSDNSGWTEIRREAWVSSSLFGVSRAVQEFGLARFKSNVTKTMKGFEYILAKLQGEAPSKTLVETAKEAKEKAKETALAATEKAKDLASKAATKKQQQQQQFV
UniProt O75400: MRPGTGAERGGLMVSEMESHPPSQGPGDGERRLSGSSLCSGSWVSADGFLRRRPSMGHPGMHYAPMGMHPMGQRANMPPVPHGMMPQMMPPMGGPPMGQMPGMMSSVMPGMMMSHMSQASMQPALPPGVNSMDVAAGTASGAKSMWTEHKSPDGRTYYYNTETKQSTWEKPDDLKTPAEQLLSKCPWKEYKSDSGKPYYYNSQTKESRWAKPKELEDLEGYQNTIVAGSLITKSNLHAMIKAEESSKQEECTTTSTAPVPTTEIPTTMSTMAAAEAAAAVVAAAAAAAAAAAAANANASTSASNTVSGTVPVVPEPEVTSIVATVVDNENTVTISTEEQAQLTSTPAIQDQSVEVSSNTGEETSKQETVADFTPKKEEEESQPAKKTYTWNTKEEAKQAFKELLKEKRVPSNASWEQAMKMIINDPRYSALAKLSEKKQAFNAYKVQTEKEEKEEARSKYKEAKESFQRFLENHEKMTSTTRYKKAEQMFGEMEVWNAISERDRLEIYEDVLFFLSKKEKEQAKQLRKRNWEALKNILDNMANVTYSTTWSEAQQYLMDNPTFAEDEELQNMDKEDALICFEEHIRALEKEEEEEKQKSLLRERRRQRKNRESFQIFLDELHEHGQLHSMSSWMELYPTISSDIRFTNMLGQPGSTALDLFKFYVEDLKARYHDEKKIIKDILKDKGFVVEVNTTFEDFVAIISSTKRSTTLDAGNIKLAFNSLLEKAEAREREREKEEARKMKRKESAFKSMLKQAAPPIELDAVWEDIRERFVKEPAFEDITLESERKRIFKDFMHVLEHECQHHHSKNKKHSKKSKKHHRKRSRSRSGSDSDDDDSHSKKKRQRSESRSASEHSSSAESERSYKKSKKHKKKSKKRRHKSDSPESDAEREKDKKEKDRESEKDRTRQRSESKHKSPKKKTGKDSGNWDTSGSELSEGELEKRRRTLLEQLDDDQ
UniProt P42785: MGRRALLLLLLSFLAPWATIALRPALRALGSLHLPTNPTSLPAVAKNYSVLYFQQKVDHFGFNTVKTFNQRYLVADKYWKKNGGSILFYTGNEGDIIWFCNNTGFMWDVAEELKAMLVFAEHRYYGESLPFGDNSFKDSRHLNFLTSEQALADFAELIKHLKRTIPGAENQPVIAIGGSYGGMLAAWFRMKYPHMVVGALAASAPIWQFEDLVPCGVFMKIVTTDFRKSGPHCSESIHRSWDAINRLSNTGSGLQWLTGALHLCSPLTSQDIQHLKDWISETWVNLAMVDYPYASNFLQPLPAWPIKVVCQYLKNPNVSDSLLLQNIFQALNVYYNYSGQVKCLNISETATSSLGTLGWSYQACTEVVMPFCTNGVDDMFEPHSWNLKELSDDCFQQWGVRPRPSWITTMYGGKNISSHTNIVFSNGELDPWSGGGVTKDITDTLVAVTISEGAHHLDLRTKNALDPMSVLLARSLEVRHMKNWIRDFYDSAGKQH
UniProt P67775, whole entry, looked up: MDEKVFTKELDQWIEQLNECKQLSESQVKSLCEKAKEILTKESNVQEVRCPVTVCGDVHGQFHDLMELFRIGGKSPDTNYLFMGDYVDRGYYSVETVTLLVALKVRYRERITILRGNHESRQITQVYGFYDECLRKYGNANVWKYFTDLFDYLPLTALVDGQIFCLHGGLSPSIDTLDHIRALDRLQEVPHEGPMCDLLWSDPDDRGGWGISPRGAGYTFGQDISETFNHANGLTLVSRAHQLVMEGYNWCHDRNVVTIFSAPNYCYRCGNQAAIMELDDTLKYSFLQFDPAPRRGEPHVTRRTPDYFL

Tests used:
Experiment in all cases: log2 fold change, soluble protein after heating vs DMSO (PISA); higher = thermal stabilisation; K562 lysate, 10 uM; active = over 0.2 and 3.5 SD of the protein, either way, in both replicates (recomputed)
[1] = compound: C1=CC=C(C=C1)[C@H](COC2=CC3=C(C=C2)NC(=O)N3)NC(=O)C4=CC=CN(C4=O)CC5=CC(=C(C=C5)F)F
How it was run: (§1)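 Pellets of K562 cells were dounce-homogenised in PBS pH 7.4 with 1 mM MgCl2, and the crude extract was held at 1 mg/mL protein for a 30 min treatment with 10 μM compound. Aliquots were heated for 3 min over 48°C-58°C and pooled before NP-40 was added to 0.5% at 4°C. The supernatant from 21,000xg for 90 min was quantified by TMTpro 16plex LC-MS/MS with channel sums equalised. Values are reported from duplicates as log-two fold change in thermal stability relative to solvent controls.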

[2] = compound: CC1=C(SC2=C1C(=N[C@H](C3=NN=C(N32)C)CC(=O)N)C4=CC=C(C=C4)Cl)C
How it was run: as §1

[3] = compound: CC1=C2C(=CC=C1)N=C(N(C2=O)C3=CC=CC=C3C)CN4C=NC5=C(N=CN=C54)N
How it was run: as §1

[4] = compound: Cc1sc2c(c1C)C(c1ccc(Cl)cc1)=N[C@@H](CC(=O)OC(C)(C)C)c1nnc(C)n1-2
How it was run: as §1

[5] = compound: c1ccc([C@@H]2C[C@H]2NC2CCNCC2)cc1
How it was run: as §1

Measured: log2 fold change

PRPF18 (UniProt Q99633)
inactive: [1] -0.003 | [2] -0.016 | [3] 0.008 | [4] 0.06 | [5] 0.015

PRPF19 (UniProt Q9UMS4)
inactive: [1] -0.009 | [2] 0.001 | [3] 0.017 | [4] 0.006 | [5] 0.029

PRKDC (UniProt P78527)
inactive: [1] -0.073 | [2] -0.123 | [3] -0.064 | [4] 0.028 | [5] -0.048

PRELID1 (UniProt Q9Y255)
inactive: [1] -0.066 | [2] 0.041 | [3] 0.053

PRMT5 (UniProt O14744)
inactive: [1] -0.01 | [2] 0.031 | [3] 0.006 | [4] -0.013 | [5] 0.002

PPP1R12A (UniProt O14974)
inactive: [1] 0.008 | [2] -0.006 | [3] 0.024 | [4] 0.003 | [5] 0.005

PRPF40A (UniProt O75400)
inactive: [1] 0.016 | [2] -0.04 | [3] 0.02 | [4] 0.044 | [5] 0.017

PRCP (UniProt P42785)
inactive: [1] 0.053 | [2] -0.014 | [3] 0.007 | [4] -0.045 | [5] -0.023

PPP2CA (UniProt P67775)
inactive: [1] -0.108 | [2] 0.037 | [3] 0.037 | [4] 0.092 | [5] -0.092
